Data taken from the supplement of paper PMC10849652.
The list shows a part of the results.

Protein sequences, listed by entry. Tags and fused reporters are not part of them. Lines headed by an entry give the natural chain unless they say otherwise; changes in a name come on top.
UniProt P48507: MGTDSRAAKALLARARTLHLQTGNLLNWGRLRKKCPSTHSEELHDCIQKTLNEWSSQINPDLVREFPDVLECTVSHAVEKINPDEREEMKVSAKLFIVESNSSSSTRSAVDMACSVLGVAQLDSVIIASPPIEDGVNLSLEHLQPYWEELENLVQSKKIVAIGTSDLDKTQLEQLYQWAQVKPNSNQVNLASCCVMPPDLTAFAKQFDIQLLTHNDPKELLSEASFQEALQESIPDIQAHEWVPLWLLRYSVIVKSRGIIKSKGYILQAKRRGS
UniProt Q8NB37: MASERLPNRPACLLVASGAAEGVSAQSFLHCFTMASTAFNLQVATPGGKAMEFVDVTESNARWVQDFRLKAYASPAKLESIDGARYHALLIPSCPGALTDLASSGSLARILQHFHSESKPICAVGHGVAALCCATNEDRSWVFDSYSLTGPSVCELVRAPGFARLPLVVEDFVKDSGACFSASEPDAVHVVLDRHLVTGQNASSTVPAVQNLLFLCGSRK
UniProt P60520, whole entry, looked up: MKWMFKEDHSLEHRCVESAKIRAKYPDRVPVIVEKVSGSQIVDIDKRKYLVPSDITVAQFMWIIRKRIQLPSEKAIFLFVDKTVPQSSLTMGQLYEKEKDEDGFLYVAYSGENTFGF
UniProt P02794, whole entry, looked up: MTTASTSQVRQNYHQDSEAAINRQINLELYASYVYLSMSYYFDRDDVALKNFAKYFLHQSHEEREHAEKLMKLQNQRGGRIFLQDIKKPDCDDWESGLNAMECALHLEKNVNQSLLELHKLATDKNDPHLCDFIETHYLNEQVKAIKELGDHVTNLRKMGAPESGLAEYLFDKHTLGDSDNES
UniProt Q96AE4: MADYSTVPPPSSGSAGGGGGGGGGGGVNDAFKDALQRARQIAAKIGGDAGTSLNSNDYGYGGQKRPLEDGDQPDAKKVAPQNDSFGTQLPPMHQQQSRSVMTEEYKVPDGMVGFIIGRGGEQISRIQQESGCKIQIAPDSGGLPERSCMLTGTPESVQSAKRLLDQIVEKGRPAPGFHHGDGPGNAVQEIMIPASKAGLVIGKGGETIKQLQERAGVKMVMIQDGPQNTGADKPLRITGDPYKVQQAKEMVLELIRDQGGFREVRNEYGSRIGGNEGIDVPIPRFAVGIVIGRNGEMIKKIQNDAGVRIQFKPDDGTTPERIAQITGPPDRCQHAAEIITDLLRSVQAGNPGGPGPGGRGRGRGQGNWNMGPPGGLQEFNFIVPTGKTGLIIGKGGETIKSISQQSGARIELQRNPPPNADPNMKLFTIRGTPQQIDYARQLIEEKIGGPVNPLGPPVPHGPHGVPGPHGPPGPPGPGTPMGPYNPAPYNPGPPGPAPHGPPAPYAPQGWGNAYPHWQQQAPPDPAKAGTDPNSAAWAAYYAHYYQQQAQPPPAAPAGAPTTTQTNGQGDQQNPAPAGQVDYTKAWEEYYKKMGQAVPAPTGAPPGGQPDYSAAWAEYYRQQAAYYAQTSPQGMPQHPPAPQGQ
UniProt Q01415: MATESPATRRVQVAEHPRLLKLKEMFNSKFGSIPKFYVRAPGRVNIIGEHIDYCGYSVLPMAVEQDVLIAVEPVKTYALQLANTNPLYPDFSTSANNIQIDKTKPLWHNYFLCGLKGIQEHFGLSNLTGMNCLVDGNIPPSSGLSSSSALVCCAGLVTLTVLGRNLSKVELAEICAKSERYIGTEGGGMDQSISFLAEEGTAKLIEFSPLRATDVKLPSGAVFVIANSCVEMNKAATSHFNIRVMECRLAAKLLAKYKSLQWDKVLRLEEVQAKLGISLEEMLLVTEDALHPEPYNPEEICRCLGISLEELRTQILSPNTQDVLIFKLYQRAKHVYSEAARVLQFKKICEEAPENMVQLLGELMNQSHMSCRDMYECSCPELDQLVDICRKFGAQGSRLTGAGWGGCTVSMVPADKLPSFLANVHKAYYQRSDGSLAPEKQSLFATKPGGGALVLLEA
UniProt Q96RP9: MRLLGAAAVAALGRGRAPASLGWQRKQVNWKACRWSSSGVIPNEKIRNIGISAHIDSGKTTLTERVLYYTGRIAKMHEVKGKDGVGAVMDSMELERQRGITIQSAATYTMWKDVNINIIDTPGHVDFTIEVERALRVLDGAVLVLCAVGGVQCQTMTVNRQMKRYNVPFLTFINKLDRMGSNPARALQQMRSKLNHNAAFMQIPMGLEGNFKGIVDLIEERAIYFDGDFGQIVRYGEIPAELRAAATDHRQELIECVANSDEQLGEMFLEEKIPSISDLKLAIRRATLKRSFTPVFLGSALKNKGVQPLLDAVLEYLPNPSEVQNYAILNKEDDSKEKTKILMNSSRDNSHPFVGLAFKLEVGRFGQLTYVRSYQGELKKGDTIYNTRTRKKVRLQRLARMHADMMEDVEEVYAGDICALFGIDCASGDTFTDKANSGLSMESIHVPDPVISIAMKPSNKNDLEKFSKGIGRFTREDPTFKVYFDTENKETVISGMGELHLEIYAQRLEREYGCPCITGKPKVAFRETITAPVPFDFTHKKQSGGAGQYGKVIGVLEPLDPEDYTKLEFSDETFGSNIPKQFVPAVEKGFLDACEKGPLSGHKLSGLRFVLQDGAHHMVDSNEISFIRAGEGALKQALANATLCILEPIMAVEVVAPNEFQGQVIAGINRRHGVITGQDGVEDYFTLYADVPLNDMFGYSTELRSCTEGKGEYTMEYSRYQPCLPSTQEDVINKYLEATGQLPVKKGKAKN
UniProt Q92538, whole entry, looked up: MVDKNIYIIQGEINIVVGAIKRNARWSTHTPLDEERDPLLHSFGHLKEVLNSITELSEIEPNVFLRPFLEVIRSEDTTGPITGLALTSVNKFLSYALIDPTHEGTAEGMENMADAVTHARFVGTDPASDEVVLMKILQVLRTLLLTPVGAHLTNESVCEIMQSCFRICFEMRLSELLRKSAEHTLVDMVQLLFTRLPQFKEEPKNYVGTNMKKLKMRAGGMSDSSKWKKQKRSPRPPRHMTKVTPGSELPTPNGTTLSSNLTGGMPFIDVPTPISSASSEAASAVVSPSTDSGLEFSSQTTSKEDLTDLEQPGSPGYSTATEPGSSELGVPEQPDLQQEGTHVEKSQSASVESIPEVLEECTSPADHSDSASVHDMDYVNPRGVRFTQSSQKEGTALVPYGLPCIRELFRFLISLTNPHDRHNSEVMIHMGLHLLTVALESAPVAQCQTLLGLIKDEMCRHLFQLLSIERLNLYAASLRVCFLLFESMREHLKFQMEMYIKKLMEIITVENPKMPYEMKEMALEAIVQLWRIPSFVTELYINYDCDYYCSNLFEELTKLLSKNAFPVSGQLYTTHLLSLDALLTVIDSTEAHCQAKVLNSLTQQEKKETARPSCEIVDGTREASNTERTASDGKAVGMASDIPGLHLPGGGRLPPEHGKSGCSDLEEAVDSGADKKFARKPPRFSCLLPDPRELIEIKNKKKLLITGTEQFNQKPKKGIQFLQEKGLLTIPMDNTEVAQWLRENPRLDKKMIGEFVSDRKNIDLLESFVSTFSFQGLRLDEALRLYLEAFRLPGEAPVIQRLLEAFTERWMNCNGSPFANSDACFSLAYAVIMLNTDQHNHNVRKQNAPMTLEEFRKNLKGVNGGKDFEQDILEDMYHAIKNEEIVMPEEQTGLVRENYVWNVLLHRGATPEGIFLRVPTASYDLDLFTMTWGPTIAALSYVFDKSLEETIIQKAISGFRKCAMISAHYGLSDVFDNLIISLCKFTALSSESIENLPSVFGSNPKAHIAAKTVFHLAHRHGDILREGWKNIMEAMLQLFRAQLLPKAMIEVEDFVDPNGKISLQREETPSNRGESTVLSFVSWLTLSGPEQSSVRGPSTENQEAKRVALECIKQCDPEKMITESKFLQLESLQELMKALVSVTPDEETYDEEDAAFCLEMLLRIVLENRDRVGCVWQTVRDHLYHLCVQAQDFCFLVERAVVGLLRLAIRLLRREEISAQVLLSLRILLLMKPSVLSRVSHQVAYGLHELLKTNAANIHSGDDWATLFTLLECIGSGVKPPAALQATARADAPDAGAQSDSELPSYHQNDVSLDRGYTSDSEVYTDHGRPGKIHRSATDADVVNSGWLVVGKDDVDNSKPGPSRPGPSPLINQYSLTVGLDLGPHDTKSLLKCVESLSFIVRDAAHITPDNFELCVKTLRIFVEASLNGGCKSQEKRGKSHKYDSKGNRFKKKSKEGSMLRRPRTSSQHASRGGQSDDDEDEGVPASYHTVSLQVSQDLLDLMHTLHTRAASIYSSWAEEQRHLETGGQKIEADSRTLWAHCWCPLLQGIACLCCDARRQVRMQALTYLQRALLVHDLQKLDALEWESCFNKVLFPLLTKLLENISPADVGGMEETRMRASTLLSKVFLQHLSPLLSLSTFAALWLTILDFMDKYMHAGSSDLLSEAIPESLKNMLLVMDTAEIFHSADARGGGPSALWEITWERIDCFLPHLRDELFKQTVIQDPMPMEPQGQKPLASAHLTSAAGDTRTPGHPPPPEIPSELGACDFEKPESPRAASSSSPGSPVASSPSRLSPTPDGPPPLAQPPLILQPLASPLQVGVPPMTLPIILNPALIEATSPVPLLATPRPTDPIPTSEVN
UniProt P51114, whole entry, looked up: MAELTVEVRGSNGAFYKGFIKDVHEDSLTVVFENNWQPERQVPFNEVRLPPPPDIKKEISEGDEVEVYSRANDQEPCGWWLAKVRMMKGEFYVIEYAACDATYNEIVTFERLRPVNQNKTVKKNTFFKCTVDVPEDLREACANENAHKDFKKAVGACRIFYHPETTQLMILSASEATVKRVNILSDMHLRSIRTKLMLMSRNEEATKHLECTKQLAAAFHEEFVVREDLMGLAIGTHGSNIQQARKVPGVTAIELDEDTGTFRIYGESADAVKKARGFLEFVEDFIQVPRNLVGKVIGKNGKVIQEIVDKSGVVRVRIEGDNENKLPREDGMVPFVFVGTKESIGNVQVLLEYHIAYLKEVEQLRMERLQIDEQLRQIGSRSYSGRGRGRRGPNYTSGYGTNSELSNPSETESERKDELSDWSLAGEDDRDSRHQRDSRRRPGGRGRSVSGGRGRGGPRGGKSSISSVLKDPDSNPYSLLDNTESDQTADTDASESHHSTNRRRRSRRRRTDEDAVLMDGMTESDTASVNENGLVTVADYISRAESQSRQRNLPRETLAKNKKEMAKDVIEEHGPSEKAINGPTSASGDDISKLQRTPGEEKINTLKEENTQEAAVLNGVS
UniProt P34059: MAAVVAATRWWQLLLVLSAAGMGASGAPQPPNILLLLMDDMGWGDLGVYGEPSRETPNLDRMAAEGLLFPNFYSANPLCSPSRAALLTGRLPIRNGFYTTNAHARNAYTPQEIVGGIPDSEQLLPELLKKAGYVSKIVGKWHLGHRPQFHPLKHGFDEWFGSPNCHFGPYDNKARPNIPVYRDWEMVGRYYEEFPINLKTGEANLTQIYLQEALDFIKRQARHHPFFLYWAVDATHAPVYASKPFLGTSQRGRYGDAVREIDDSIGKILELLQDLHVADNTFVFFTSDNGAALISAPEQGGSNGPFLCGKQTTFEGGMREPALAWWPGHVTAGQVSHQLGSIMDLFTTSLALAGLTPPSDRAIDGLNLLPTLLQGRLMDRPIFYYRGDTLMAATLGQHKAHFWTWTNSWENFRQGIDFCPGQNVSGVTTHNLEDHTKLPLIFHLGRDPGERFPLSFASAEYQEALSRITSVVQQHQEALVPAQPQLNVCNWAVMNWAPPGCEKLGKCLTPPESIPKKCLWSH
UniProt P04066: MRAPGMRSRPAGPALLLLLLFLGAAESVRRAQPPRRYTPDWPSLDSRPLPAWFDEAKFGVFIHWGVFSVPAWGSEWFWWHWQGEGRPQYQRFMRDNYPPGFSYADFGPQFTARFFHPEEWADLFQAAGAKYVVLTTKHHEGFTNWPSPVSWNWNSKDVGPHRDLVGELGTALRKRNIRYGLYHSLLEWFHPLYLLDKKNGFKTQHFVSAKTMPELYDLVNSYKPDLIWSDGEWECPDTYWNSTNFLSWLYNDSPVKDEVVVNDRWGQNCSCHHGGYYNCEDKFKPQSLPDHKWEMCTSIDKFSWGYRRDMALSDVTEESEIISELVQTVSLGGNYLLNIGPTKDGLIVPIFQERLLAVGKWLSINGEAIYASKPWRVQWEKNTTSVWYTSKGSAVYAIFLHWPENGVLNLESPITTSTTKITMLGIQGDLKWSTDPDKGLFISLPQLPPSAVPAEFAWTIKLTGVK
UniProt P0CL80: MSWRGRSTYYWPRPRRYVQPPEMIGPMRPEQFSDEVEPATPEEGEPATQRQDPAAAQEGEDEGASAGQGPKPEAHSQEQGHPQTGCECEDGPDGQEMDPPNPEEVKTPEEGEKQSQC
UniProt Q70Z53: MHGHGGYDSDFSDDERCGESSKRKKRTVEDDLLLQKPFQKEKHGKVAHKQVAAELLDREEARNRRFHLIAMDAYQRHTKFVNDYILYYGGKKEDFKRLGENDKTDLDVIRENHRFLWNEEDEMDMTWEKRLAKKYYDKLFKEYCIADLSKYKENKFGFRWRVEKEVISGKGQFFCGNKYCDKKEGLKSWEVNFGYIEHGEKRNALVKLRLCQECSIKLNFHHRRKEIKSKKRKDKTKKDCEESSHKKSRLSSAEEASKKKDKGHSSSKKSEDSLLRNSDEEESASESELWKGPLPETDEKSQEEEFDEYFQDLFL

Legend:
Assay in all cases: log2 fold change, soluble protein after heating vs DMSO (PISA); higher = thermal stabilisation; K562 lysate, 10 uM; active = over 0.2 and 3.5 SD of the protein, either way, in both replicates (recomputed)
vemurafenib = compound: CCCS(=O)(=O)Nc1ccc(F)c(C(=O)c2c[nH]c3ncc(-c4ccc(Cl)cc4)cc23)c1F [vemurafenib]
Method in brief: (§1)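 A 30 min treatment with 10 μM compound was applied to crude K562 extract at 1 mg/mL protein in PBS pH 7.4 with 1 mM MgCl2. Heating for 3 min spanned 48°C-58°C, after which aliquots were pooled, adjusted to 0.5% NP-40 at 4°C and spun at 21,000xg for 90 min. TMTpro 16plex LC-MS/MS of the supernatant, with channel sums equalised, gave values recorded as log-two fold change in thermal stability against solvent controls, from duplicates.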

[1] = compound: CCCS(=O)(=O)Nc1ccc(F)c(C(=O)c2c[nH]c3ncc(Cl)cc23)c1F
Method in brief: as §1

barasertib = compound: CCN(CCCOc1ccc2c(Nc3cc(CC(=O)Nc4cccc(F)c4)[nH]n3)ncnc2c1)CCOP(=O)(O)O [barasertib]
Method in brief: as §1

[2] = compound: CC[C@@H]1C(=O)N(C)c2cnc(Nc3ccc(C(=O)NC4CCN(C)CC4)cc3OC)nc2N1C1CCCC1
Method in brief: as §1

volasertib = compound: CC[C@@H]1C(=O)N(C)c2cnc(Nc3ccc(C(=O)N[C@H]4CC[C@H](N5CCN(CC6CC6)CC5)CC4)cc3OC)nc2N1C(C)C [volasertib]
Method in brief: as §1

[3] = compound: CCn1c(C(=O)N(C2CC2)C2CC2)cc2c3c(ncn3C)c(Nc3cc(C)n(C)n3)nc21
Method in brief: as §1

[4] = compound: CCn1cc(-c2ccnc3[nH]c(-c4cccc(CN(C)C)c4)cc23)c(-c2ccc(NC(=O)N(C)C)cc2)n1
Method in brief: as §1

[5] = compound: CN1CCC(CNc2ccc3ncc(-c4cccc(OC(F)(F)F)c4)n3n2)CC1
Method in brief: as §1

saracatinib = compound: CN1CCN(CCOc2cc(OC3CCOCC3)c3c(Nc4c(Cl)ccc5c4OCO5)ncnc3c2)CC1 [saracatinib]
Method in brief: as §1

sotrastaurin = compound: CN1CCN(c2nc(C3=C(c4c[nH]c5ccccc45)C(=O)NC3=O)c3ccccc3n2)CC1 [sotrastaurin]
Method in brief: as §1

Measured: log2 fold change

GCLM (UniProt P48507)
inactive: vemurafenib 0.014 | [1] 0.025 | barasertib -0.007 | [2] 0 | volasertib -0.015 | [3] -0.013 | [4] -0.011 | [5] -0.012 | saracatinib 0.011 | sotrastaurin -0.022

GATD1 (UniProt Q8NB37)
inactive: vemurafenib -0.008 | [1] 0.021 | barasertib 0.034 | [2] -0.06 | volasertib -0.021 | [3] -0.004 | [4] -0.026 | [5] 0.059 | saracatinib -0.024 | sotrastaurin 0.035

GAMT (UniProt Q14353)
inactive: vemurafenib 0.037 | [1] 0.045 | barasertib 0.112 | [2] 0.036 | volasertib 0.007 | [3] 0.011 | [4] 0.003 | [5] -0.029 | saracatinib -0.014 | sotrastaurin 0.018

GBA (UniProt P04062)
inactive: vemurafenib -0.07 | [1] -0.002 | barasertib -0.047 | [2] -0.021 | volasertib 0.055 | [3] 0.004 | [4] 0.015 | [5] 0.122 | saracatinib -0.074 | sotrastaurin 0.049

GDI1 (UniProt P31150)
inactive: vemurafenib -0.003 | [1] 0.003 | barasertib -0.002 | [2] -0.04 | volasertib -0.002 | [3] 0.014 | [4] 0.128 | [5] 0.006 | saracatinib 0.008 | sotrastaurin -0.01

GEMIN5 (UniProt Q8TEQ6)
inactive: vemurafenib 0.006 | [1] 0.008 | barasertib 0.004 | [2] -0.085 | volasertib -0.069 | [3] 0.066 | [4] -0.052 | [5] -0.061 | saracatinib 0.018 | sotrastaurin 0.015

GABARAPL2 (UniProt P60520)
inactive: vemurafenib 0.097 | [1] -0.016 | barasertib 0.016 | [2] 0.016 | volasertib 0.034 | [3] -0.009 | [4] 0 | [5] 0.01 | saracatinib -0.013 | sotrastaurin -0.016

GEMIN4 (UniProt P57678)
inactive: vemurafenib 0.036 | [1] 0.025 | barasertib 0.041 | [2] -0.037 | volasertib -0.053 | [3] 0.023 | [4] -0.168 | [5] -0.091 | saracatinib 0.091 | sotrastaurin 0.041

FTSJ3 (UniProt Q8IY81)
inactive: vemurafenib -0.004 | [1] -0.011 | barasertib 0.006 | [2] 0.011 | volasertib -0.033 | [3] 0.024 | [4] 0 | [5] -0.005 | saracatinib 0.015 | sotrastaurin -0.003

FTH1 (UniProt P02794)
inactive: vemurafenib -0.053 | [1] 0.019 | barasertib 0.012 | [2] -0.035 | volasertib -0.051 | [3] 0.013 | [4] -0.107 | [5] 0.058 | saracatinib 0.009 | sotrastaurin -0.002

FUBP1 (UniProt Q96AE4)
inactive: vemurafenib -0.079 | [1] 0.059 | barasertib -0.043 | [2] 0.054 | volasertib -0.008 | [3] -0.08 | [4] 0.085 | [5] 0.02 | saracatinib 0.053 | sotrastaurin 0.052

Retrieved one by one from above (2):
FUBP1 (UniProt Q96AE4)
inactive: vemurafenib -0.079 | [1] 0.059 | barasertib -0.043 | [2] 0.054 | volasertib -0.008 | [3] -0.08 | [4] 0.085 | [5] 0.02 | saracatinib 0.053 | sotrastaurin 0.052

GBA (UniProt P04062)
inactive: vemurafenib -0.07 | [1] -0.002 | barasertib -0.047 | [2] -0.021 | volasertib 0.055 | [3] 0.004 | [4] 0.015 | [5] 0.122 | saracatinib -0.074 | sotrastaurin 0.049

(list continues)

GALK2 (UniProt Q01415)
inactive: vemurafenib -0.004 | [1] 0.001 | barasertib 0.028 | [2] 0.013 | volasertib 0 | [3] -0.014 | [4] -0.02 | [5] 0.01 | saracatinib -0.026 | sotrastaurin -0.003

G3BP2 (UniProt Q9UN86)
inactive: vemurafenib 0.008 | [1] 0.017 | barasertib 0.016 | [2] 0.009 | volasertib -0.032 | [3] -0.004 | [4] 0.028 | [5] -0.055 | saracatinib 0.005 | sotrastaurin 0.03

GATAD2B (UniProt Q8WXI9)
inactive: vemurafenib -0.026 | [1] 0.023 | barasertib 0.051 | [2] 0.075 | volasertib 0.003 | [3] -0.026 | [4] 0.01 | [5] -0.043 | saracatinib -0.044 | sotrastaurin 0.009

GFM1 (UniProt Q96RP9)
inactive: vemurafenib 0.003 | [1] 0.031 | barasertib 0.036 | [2] -0.033 | volasertib -0.035 | [3] -0.013 | [4] -0.014 | [5] -0.025 | saracatinib -0.016 | sotrastaurin -0.017

GBF1 (UniProt Q92538)
inactive: vemurafenib 0.023 | [1] 0.04 | barasertib 0.087 | [2] -0.004 | volasertib -0.05 | [3] 0.006 | [4] -0.011 | [5] -0.046 | saracatinib -0.011 | sotrastaurin 0.019

FXR1 (UniProt P51114)
inactive: vemurafenib -0.047 | [1] 0.009 | barasertib 0.01 | [2] -0.036 | volasertib -0.022 | [3] 0.018 | [4] -0.107 | [5] 0.012 | saracatinib -0.036 | sotrastaurin -0.011

GALNT12 (UniProt Q8IXK2)
inactive: vemurafenib 0.046 | [1] -0.015 | barasertib 0.079 | [2] -0.038 | volasertib 0.038 | [3] -0.04 | [4] 0.04 | [5] -0.106 | saracatinib 0.139 | sotrastaurin 0.073

FOXK1 (UniProt P85037)
inactive: vemurafenib -0.01 | [1] 0.008 | barasertib 0.025 | [2] -0.007 | volasertib -0.019 | [3] 0.013 | [4] -0.014 | [5] 0.026 | saracatinib 0.005 | sotrastaurin -0.012

GALNS (UniProt P34059)
inactive: vemurafenib 0.02 | [1] 0.031 | barasertib -0.042 | [2] 0.003 | volasertib -0.006 | [3] -0.008 | [4] 0.003 | [5] 0.021 | saracatinib -0.006 | sotrastaurin 0.002

GCC2 (UniProt Q8IWJ2)
inactive: vemurafenib 0.018 | [1] 0.004 | barasertib 0.003 | [2] 0.033 | volasertib -0.002 | [3] 0.024 | [4] -0.037 | [5] 0.012 | saracatinib 0.01 | sotrastaurin -0.004

FUCA1 (UniProt P04066)
inactive: vemurafenib 0.027 | [1] 0.007 | barasertib -0.015 | [2] -0.004 | volasertib 0.026 | [3] -0.042 | [4] -0.138 | [5] 0.088 | saracatinib 0.019 | sotrastaurin -0.006

GALNT1 (UniProt Q10472)
inactive: vemurafenib 0.018 | [1] -0.003 | barasertib 0.006 | [2] -0.01 | volasertib -0.008 | [3] -0.04 | [4] -0.147 | [5] -0.006 | saracatinib -0.018 | sotrastaurin 0.003

GAGE12F (UniProt P0CL80)
inactive: vemurafenib 0.077 | [1] -0.024 | barasertib 0.125 | [2] -0.079 | volasertib 0.059 | [3] -0.032 | [4] -0.054 | [5] -0.002 | saracatinib 0.015 | sotrastaurin 0.064

FRA10AC1 (UniProt Q70Z53)
inactive: vemurafenib -0.045 | [1] 0.009 | barasertib -0.013 | [2] 0.036 | volasertib -0.007 | [3] 0.038 | [4] 0.046 | [5] 0.02 | saracatinib 0.005 | sotrastaurin 0.038

FREM2 (UniProt Q5SZK8)
inactive: vemurafenib 0.003 | [1] -0.082 | barasertib 0.136 | [2] -0.072 | volasertib 0.026 | [3] 0.014 | [4] -0.366 | [5] 0.151 | saracatinib 0.051 | sotrastaurin 0.056
